Measured data: PubChem BioAssay AID1259405 (NCATS, 2018)
In all, the deposit lists about 50,000 reagents; this is a part drawn at random. About 4,000 of them (8%) count as active. 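Mouse siRNA library applied to hamster cells; one well for each siRNA.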 The numbers tell different reagents against one gene apart.

- Purpose: 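Mouse-designed siRNAs used to find CHO productivity engineering targets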 (primary screen)
- Cell system: Chinese hamster CHO-K1 ovary cells with stable secreted eGFP expression
- Knock-down reagent: single siRNA against mouse genes, 0.8 pmol siRNA per well (2 µl of 400 nM stock)
- Duration: 3 days
- Read-out: 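Percent of the per-plate non-targeting control median for intracellular GFP per well by laser scanning cytometry and for cell viability by ATP luminescence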
- Reading the numbers: GFP, % of control: higher = more GFP per well, higher productivity; viability (ATP), % of control: higher = more viable cells (more ATP)
- Call rule: 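Called active when intracellular GFP, relative to negative control, is at or above 120%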

How did the screen score Nnmt #1?
GFP, % of control: 80.8; viability (ATP), % of control: 95; Outcome: inactive

Which result is listed for Nnmt #2?
GFP, % of control: 110; viability (ATP), % of control: 114; Outcome: inactive

How did the screen score Nnmt #3?
GFP, % of control: 83.6; viability (ATP), % of control: 114; Outcome: inactive

For Ube2q1 #1, what does the deposit list?
GFP, % of control: 124; viability (ATP), % of control: 104; Outcome: active

For Ube2q1 #2, how do the results read?
GFP, % of control: 72.7; viability (ATP), % of control: 79.5; Outcome: inactive

With Ube2q1 #3, what does the deposit list?
GFP, % of control: 107; viability (ATP), % of control: 123; Outcome: inactive

What is on record for Palb2 #1?
GFP, % of control: 32.1; viability (ATP), % of control: 43; Outcome: inactive

Which result is listed for Palb2 #2?
GFP, % of control: 82.9; viability (ATP), % of control: 58.7; Outcome: inactive

Which result is listed for Palb2 #3?
GFP, % of control: 64.5; viability (ATP), % of control: 79.9; Outcome: inactive

Which result is listed for Usf2 #1?
GFP, % of control: 51.6; viability (ATP), % of control: 75.9; Outcome: inactive

With Usf2 #2, how do the results read?
GFP, % of control: 76.5; viability (ATP), % of control: 77.2; Outcome: inactive

For Usf2 #3, what does the deposit list?
GFP, % of control: 80.2; viability (ATP), % of control: 103; Outcome: inactive

What did the screen give for Ifi202b #1?
GFP, % of control: 107; viability (ATP), % of control: 80.7; Outcome: inactive

For Ifi202b #2, what was measured?
GFP, % of control: 111; viability (ATP), % of control: 92.4; Outcome: inactive

With Ifi202b #3, how do the results read?
GFP, % of control: 120; viability (ATP), % of control: 95.8; Outcome: active

For Or5d14 #1, what does the deposit list?
GFP, % of control: 102; viability (ATP), % of control: 79; Outcome: inactive

With Or5d14 #2, what does the deposit list?
GFP, % of control: 83; viability (ATP), % of control: 80.5; Outcome: inactive

How did the screen score Or5d14 #3?
GFP, % of control: 89.1; viability (ATP), % of control: 72.3; Outcome: inactive

For Scn2b #1, how do the results read?
GFP, % of control: 109; viability (ATP), % of control: 87.4; Outcome: inactive

With Scn2b #2, what was measured?
GFP, % of control: 74.6; viability (ATP), % of control: 59.4; Outcome: inactive

Which result is listed for Scn2b #3?
GFP, % of control: 370; viability (ATP), % of control: 111; Outcome: active

What is on record for Slurp1 #1?
GFP, % of control: 113; viability (ATP), % of control: 103; Outcome: inactive

What did the screen give for Slurp1 #2?
GFP, % of control: 74.2; viability (ATP), % of control: 66.1; Outcome: inactive

How did the screen score Cd2bp2 #1?
GFP, % of control: 94.6; viability (ATP), % of control: 108; Outcome: inactive

How did the screen score Cd2bp2 #2?
GFP, % of control: 71.6; viability (ATP), % of control: 97.2; Outcome: inactive

For Cd2bp2 #3, what does the deposit list?
GFP, % of control: 83; viability (ATP), % of control: 91.2; Outcome: inactive

How did the screen score Tbkbp1 #1?
GFP, % of control: 107; viability (ATP), % of control: 90.3; Outcome: inactive

How did the screen score Tbkbp1 #2?
GFP, % of control: 28.9; viability (ATP), % of control: 22.2; Outcome: inactive

With Tbkbp1 #3, how do the results read?
GFP, % of control: 104; viability (ATP), % of control: 107; Outcome: inactive

What did the screen give for Slc26a1 #1?
GFP, % of control: 109; viability (ATP), % of control: 65.4; Outcome: inactive

With Slc26a1 #2, what was measured?
GFP, % of control: 35.1; viability (ATP), % of control: 58.5; Outcome: inactive

With Slc26a1 #3, how do the results read?
GFP, % of control: 25.9; viability (ATP), % of control: 63; Outcome: inactive

What is on record for Ramac #1?
GFP, % of control: 80.7; viability (ATP), % of control: 56.3; Outcome: inactive

For Ramac #2, what does the deposit list?
GFP, % of control: 84.7; viability (ATP), % of control: 78.5; Outcome: inactive

With Ramac #3, what does the deposit list?
GFP, % of control: 54.5; viability (ATP), % of control: 65.4; Outcome: inactive

For Ubl4b #1, what was measured?
GFP, % of control: 88.5; viability (ATP), % of control: 68.4; Outcome: inactive

What is on record for Ubl4b #2?
GFP, % of control: 87.1; viability (ATP), % of control: 59; Outcome: inactive

How did the screen score Ubl4b #3?
GFP, % of control: 74.6; viability (ATP), % of control: 80; Outcome: inactive

For Rrp1 #1, what does the deposit list?
GFP, % of control: 66.9; viability (ATP), % of control: 55.6; Outcome: inactive

How did the screen score Rrp1 #2?
GFP, % of control: 43.5; viability (ATP), % of control: 56.6; Outcome: inactive

How did the screen score Rrp1 #3?
GFP, % of control: 70.9; viability (ATP), % of control: 78.3; Outcome: inactive

With Eif4ebp1 #1, what was measured?
GFP, % of control: 89.2; viability (ATP), % of control: 99.9; Outcome: inactive

For Eif4ebp1 #2, what was measured?
GFP, % of control: 94.2; viability (ATP), % of control: 88.1; Outcome: inactive

With Eif4ebp1 #3, how do the results read?
GFP, % of control: 92; viability (ATP), % of control: 80.7; Outcome: inactive

How did the screen score Jph1 #1?
GFP, % of control: 49.1; viability (ATP), % of control: 59.2; Outcome: inactive

Which result is listed for Jph1 #2?
GFP, % of control: 54.1; viability (ATP), % of control: 66; Outcome: inactive

What is on record for Jph1 #3?
GFP, % of control: 77.9; viability (ATP), % of control: 55.3; Outcome: inactive

With Prpf3 #1, how do the results read?
GFP, % of control: 76.2; viability (ATP), % of control: 86.9; Outcome: inactive

How did the screen score Prpf3 #2?
GFP, % of control: 91.8; viability (ATP), % of control: 95.6; Outcome: inactive

With Cetn3 #1, what was measured?
GFP, % of control: 78.4; viability (ATP), % of control: 85.7; Outcome: inactive

How did the screen score Cetn3 #2?
GFP, % of control: 66.8; viability (ATP), % of control: 72.7; Outcome: inactive

With Fbxo46 #1, what was measured?
GFP, % of control: 64.8; viability (ATP), % of control: 72.7; Outcome: inactive

How did the screen score Fbxo46 #2?
GFP, % of control: 116; viability (ATP), % of control: 81.1; Outcome: inactive

For Fbxo46 #3, what was measured?
GFP, % of control: 84.5; viability (ATP), % of control: 85.9; Outcome: inactive
